Our source for the survivor count and T/C values is PubChem BioAssay AID328 (DTP/NCI, 2004).

The subject of this test is BDF1 mice, P388 leukemia ip, median survival T/C. Put plainly: NCI In Vivo Anticancer Drug Screen. Data for tumor model P388 Leukemia (intraperitoneal) in B6D2F1 (BDF1) mice. The note with it: T/C endpoint: median survival time, higher T/C = longer survival. Put shortly:
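Vehicle-dosed animals serve as the reference; survival of compound-dosed, tumour-implanted mice is divided by it.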

Where [1] appears, read: dose: 50.0 mg/kg/injection, schedule: Q01DX009 (ip), vehicle: saline with Tween-80.
[2] abbreviates: dose: 100.0 mg/kg/injection, schedule: Q01DX009 (ip), vehicle: saline with Tween-80.

The list shows only some results of the screen, not a fair sample: it gathers tests that were run many times, whatever their T/C, doses with no T/C, and many T/C values between a quarter and a half above the control. Further doses and runs are listed elsewhere. T/C gives the treated animals as a percentage of the vehicle group. Some doses have a count of surviving animals in place of a T/C: the source files T/C as zero there, which appears to mark a toxic dose or a test without result, not a measured value. Some survivor counts are full or nearly so, which does not show that the dose was tolerated: the source hardly ever lists a survival T/C far under the control, and the zero likely stands for such cases as well. Survivors were counted at the toxicity check, usually on the fifth day, unless a day is given; later deaths do not show. Schedules are NCI's codes, read here as Q, the interval in days (D) or hours (H), X, the number of doses. Some entries hold several experiments; their values stand side by side, smallest first. For survival time, this PubChem deposit counts one and a half times the control or more as active, and values a quarter to a half above the control carry no call in these data; other NCI protocols may use other cut-offs.

`FC(F)(F)C(F)(F)C(F)(F)c1nc2nc(Cl)c(Cl)nc2[nH]1`: the survivor count reads like this: (dose: 25.0 mg/kg/injection, schedule: Q01DX009 (ip), vehicle: saline with Tween-80) 3 of 6 and 4 of 6; under setting [1], 3 of 6; under setting [2], 1 of 6; (dose: 200.0 mg/kg/injection, schedule: Q04DX003 (ip), vehicle: saline with Tween-80) 4 of 6; (dose: 400.0 mg/kg/injection, schedule: Q04DX003 (ip), vehicle: saline with Tween-80) 2 of 6.

Regarding `O=C(/C=C/c1ccccc1Cl)NCC(O)CO` (stereo not drawn), where the note is “dose: 200.0 mg/kg/injection, schedule: Q01DX009 (ip), vehicle: other”, the survivor count is on record as 6 of 6.

Regarding `COC(=O)c1ccc(OP(=O)(N(C)C)N(C)C)cc1`, the T/C (dose: 6.25 mg/kg/injection, schedule: Q01DX009 (ip), vehicle: saline with Tween-80) is 128 % of control. Also, the survivor count is, setting by setting: under setting [1], 0 of 6; under setting [2], 0 of 6; (dose: 200.0 mg/kg/injection, schedule: Q01DX009 (ip), vehicle: saline with Tween-80) 0 of 6.

For `Oc1cc(N2CC2)c(O)cc1N1CC1`, the T/C reads like this: (dose: 0.05 mg/kg/injection, schedule: Q01DX009 (ip), vehicle: saline) 133 % of control; (dose: 0.2 mg/kg/injection, schedule: Q01DX009 (ip), vehicle: saline) 145 % of control; (dose: 0.31 mg/kg/injection, schedule: Q04DX003 (ip), vehicle: saline) 145 % of control. In addition, the survivor count is reported as 6 of 6 (dose: 5.0 mg/kg/injection, schedule: Q04DX003 (ip), vehicle: saline); 5 of 6 (dose: 10.0 mg/kg/injection, schedule: Q04DX003 (ip), vehicle: saline); 5 of 6 (dose: 1400.0 micrograms/kg/injection, schedule: Q01DX009 (ip), vehicle: saline); 6 of 6 (dose: 2200.0 micrograms/kg/injection, schedule: Q01DX009 (ip), vehicle: saline); 6 of 6 (dose: 3300.0 micrograms/kg/injection, schedule: Q01DX009 (ip), vehicle: saline).
